According to publication PMC7124466:
Results are given in words; binding and its absence hold for the method and conditions named. In cells and extracts the contact can be indirect. Some results given as binding are weak or reduced against the parent protein; the word gives no strength. Values belong to the binder of their own block, whether it stands above or below them.

How the values were obtained:
Assay in all cases: cross-linking; intact purified yeast mitochondria (5 mg/ml, isotonic buffer: 250 mM sucrose, 1 mM EDTA, 10 mM MOPS-KOH, pH 7.2) crosslinked in organello with 2 mM CBDPS-H8/D8, 21 °C 10 min then on ice 110 min; Lys-Lys inter-protein crosslinked peptides enriched (SCX, avidin) and identified by LC-MS/MS, FDR 2%
[1] = biological target: T1, ATP19 (yeast (endogenous in mitochondria of strain YPH499)) (UniProt P81451)
T1 sequence: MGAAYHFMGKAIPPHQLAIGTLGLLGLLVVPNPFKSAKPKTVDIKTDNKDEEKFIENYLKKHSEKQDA

[2] = biological target: T2, IDH1 (yeast (endogenous in mitochondria of strain YPH499)) (UniProt P28834)
T2 sequence: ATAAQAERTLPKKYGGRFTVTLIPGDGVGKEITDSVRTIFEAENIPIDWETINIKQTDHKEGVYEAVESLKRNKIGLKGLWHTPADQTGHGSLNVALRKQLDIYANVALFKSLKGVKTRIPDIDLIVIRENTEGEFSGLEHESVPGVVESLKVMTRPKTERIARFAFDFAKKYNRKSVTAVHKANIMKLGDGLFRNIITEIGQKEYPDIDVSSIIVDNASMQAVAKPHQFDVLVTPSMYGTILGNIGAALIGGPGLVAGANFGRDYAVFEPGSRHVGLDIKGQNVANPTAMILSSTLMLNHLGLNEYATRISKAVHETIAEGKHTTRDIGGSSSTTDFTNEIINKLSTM

[3] = biological target: T3, LSP1 (yeast (endogenous in mitochondria of strain YPH499)) (UniProt Q12230)
T3 sequence: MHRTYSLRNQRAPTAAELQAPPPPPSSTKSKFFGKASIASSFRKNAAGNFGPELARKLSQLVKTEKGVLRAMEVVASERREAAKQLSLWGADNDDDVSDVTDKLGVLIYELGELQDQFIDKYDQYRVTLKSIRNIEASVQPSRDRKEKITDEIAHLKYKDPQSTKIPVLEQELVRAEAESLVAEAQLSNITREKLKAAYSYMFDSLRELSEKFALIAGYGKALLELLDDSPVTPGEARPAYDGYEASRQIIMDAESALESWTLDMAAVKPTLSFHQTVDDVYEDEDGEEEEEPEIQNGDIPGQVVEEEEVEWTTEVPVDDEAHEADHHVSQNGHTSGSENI

- binding [1]: binds
B1: TIM11 (protein, UniProt P81449 1-96)
chain: MSTVNVLRYSALGLGLFFGFRNDMILKCNAKKKEEQAQYEEKLKLVEEAKKEYAKLHPVVTPKDVPANASFNLEDPNIDFERVILNAVESLKEAST

- binding [2]: binds
B2: IDH2 (protein, UniProt P28241 16-369)
chain: ATVKQPSIGRYTGKPNPSTGKYTVSFIEGDGIGPEISKSVKKIFSAANVPIEWESCDVSPIFVNGLTTIPDPAVQSITKNLVALKGPLATPIGKGHRSLNLTLRKTFGLFANVRPAKSIEGFKTTYENVDLVLIRENTEGEYSGIEHIVCPGVVQSIKLITRDASERVIRYAFEYARAIGRPRVIVVHKSTIQRLADGLFVNVAKELSKEYPDLTLETELIDNSVLKVVTNPSAYTDAVSVCPNLYGDILSDLNSGLSAGSLGLTPSANIGHKISIFEAVHGSAPDIAGQDKANPTALLLSSVMMLNHMGLTNHADQIQNAVLSTIASGPENRTGDLAGTATTSSFTEAVIKRL

- binding [3]: binds
B3: PIL1 (protein, UniProt P53252 1-339)
chain: MHRTYSLRNSRAPTASQLQNPPPPPSTTKGRFFGKGGLAYSFRRSAAGAFGPELSRKLSQLVKIEKNVLRSMELTANERRDAAKQLSIWGLENDDDVSDITDKLGVLIYEVSELDDQFIDRYDQYRLTLKSIRDIEGSVQPSRDRKDKITDKIAYLKYKDPQSPKIEVLEQELVRAEAESLVAEAQLSNITRSKLRAAFNYQFDSIIEHSEKIALIAGYGKALLELLDDSPVTPGETRPAYDGYEASKQIIIDAESALNEWTLDSAQVKPTLSFKQDYEDFEPEEGEEEEEEDGQGRWSEDEQEDGQIEEPEQEEEGAVEEHEQVGHQQSESLPQQTTA
